No constants are given. Whether binding was seen depends on the method and setting. Binding seen in cells or lysates may run through a third protein. Some entries that bind do so weakly or less than the wild type.
Experiments:
[1] = target: lamin A/C (human (endogenous in HeLa and human dermal fibroblasts)) (UniProt P02545); test: proximity ligation; in situ Duolink PLA on methanol-fixed human dermal fibroblasts (control and HGPS), primary antibodies overnight at 4 °C; cells untreated or treated with mevinolin, TSA, MS-275, MC1568, TSA + mevinolin or H2O2
[2] = target: FLAG-tagged wild-type lamin A (LA-WT) (UniProt P02545); test: co-IP; transfected HEK293 cells, 700 ug lysate in high detergent IP buffer (50 mM TRIS-HCl pH 8, 250 mM NaCl, 0.1% SDS, 1% NP-40) incubated overnight with anti-FLAG, protein A/G, western blot for endogenous HDAC2
[3] = target: lamin A/C (human (endogenous in HeLa and human dermal fibroblasts)) (UniProt P02545); test: co-IP; 700 ug lysate in high detergent IP buffer (50 mM TRIS-HCl pH 8, 250 mM NaCl, 0.1% SDS, 1% NP-40) incubated overnight with anti-lamin A/C (Novocastra), protein A/G, western blot for HDAC2; cells untreated or treated with mevinolin

By UniProt entry, the sequences of proteins in these tests, tags left out. Residues count along the entry.
UniProt P02545, residues 1-646: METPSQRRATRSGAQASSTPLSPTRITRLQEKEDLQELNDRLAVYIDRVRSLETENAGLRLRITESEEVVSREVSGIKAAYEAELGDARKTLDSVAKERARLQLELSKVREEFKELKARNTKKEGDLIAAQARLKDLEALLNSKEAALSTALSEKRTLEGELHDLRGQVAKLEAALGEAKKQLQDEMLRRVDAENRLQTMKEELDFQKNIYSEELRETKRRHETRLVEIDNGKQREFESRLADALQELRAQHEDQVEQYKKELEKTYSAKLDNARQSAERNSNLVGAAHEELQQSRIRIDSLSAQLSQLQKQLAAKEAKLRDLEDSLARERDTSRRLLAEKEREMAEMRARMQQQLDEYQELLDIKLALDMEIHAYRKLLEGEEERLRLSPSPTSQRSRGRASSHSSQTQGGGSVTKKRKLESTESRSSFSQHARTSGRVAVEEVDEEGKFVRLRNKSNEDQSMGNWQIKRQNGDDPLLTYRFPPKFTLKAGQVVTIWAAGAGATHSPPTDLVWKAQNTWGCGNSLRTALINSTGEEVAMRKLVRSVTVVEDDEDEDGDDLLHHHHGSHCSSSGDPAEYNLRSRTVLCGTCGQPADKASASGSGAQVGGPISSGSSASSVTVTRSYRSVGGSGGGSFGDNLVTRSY
UniProt Q92769: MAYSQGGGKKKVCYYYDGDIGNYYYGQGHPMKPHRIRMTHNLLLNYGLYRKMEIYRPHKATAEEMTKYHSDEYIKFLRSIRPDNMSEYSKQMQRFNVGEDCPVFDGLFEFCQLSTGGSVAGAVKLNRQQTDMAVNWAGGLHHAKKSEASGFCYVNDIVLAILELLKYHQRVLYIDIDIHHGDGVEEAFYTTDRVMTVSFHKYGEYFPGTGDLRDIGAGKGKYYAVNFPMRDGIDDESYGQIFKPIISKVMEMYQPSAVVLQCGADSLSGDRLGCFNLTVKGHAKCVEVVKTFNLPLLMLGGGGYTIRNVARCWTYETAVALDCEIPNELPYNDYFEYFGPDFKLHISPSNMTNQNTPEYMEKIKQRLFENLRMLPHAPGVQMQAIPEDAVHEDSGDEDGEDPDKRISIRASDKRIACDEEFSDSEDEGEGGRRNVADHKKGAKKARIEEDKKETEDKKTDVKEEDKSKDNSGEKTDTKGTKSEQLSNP

Measured: binding

histone deacetylase 2 (HDAC2) (from UniProt Q92769 1-488) (enzyme)
binds: all assays above

— paper PMC6365888
